From US20020031818A1, “Modification of Mdm2 activity” (priority 2000, published 2002) come the findings set out here.

Sequences of proteins named here, by UniProt entry; tags and fusion partners are left off. A change or cut given only in a name is not applied to a line headed by its entry. Residues count along the entry.
UniProt P63280, residues 2-158: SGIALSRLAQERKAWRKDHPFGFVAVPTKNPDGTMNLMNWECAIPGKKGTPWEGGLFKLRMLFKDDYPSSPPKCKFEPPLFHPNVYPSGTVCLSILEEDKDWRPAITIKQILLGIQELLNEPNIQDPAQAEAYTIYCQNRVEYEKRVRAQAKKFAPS
UniProt Q00987: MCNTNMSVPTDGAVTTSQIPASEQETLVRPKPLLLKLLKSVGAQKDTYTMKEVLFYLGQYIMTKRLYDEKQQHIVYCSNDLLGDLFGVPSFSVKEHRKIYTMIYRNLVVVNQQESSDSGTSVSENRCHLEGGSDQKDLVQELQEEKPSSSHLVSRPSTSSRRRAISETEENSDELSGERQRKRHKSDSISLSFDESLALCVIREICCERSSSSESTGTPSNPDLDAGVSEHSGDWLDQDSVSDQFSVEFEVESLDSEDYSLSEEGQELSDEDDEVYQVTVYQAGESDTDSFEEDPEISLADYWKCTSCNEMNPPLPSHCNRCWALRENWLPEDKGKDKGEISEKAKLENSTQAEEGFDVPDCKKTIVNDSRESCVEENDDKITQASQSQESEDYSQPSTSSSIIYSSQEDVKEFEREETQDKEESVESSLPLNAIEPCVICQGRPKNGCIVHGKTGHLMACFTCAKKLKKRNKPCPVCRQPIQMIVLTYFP

In test [1] the target is Ubc9 of Mdm2/p53 double null cells (UniProt P63280). In words: immunoprecipitation of Mdm2 (2A10) from Mdm2/p53 double null cells, immunoblot (FIG. 8B). In general terms: Immunoblotting shows a protein as a band on a membrane.
Test [2] concerns the target Mdm2, wild type (no tag stated; in vitro translated or expressed in or immunoprecipitated from cells) (Homo sapiens (Human)) (UniProt Q00987). In words: NIH3T3 cells co-transfected with Mdm2 and Sumo, after UV-irradiation (data not shown).

These are yes or no findings as the source states them, for the method shown. Some entries that bind do so weakly or less than the wild type.

For the substance “Mdm2, wild type (no tag stated; in vitro translated or expressed in or immunoprecipitated from cells) (from UniProt Q00987 1-491) (enzyme)”, the binding entry in test [1] is listed as “binds”.

Consider “Ubc9 of mouse fibroblast cells (EJ cell lysates; NIH 3T3 cells) (from UniProt P63280 2-158) (enzyme)”, for which the binding entry in test [2] is given as “binds”.
